Experimental findings from article PMC8312462 are described below.

Results are given in words; binding and its absence hold for the method and conditions named. In cells and extracts the contact can be indirect. A result given as binding can be weak or reduced; the word gives no strength.

The target in the assay is WNT (human (endogenous in BMSCs)). Description: co-IP; cells lysed 20 min at 4 C in 50 mM Tris-HCl, 150 mM NaCl, 1% NP-40, 10% glycerol, 0.1% SDS, 2 mM Na2EDTA; immunoprecipitated with antibody and protein A+G agarose beads at 4 C, washed 3 times, western blot; IgG as control. (Immunoblotting shows a protein as a band on a membrane.)

B1: Wnt inhibitor (WIF)-1 (protein, UniProt Q9Y5W5 29-379)
chain: GPPQEESLYLWIDAHQARVLIGFEEDILIVSEGKMAPFTHDFRKAQQRMPAIPVNIHSMNFTWQAAGQAEYFYEFLSLRSLDKGIMADPTVNVPLLGTVPHKASVVQVGFPCLGKQDGVAAFEVDVIVMNSEGNTILQTPQNAIFFKTCQQAECPGGCRNGGFCNERRICECPDGFHGPHCEKALCTPRCMNGGLCVTPGFCICPPGFYGVNCDKANCSTTCFNGGTCFYPGKCICPPGLEGEQCEISKCPQPCRNGGKCIGKSKCKCSKGYQGDLCSKPVCEPGCGAHGTCHEPNKCQCQEGWHGRHCNKRYEASLIHALRPAGAQLRQHTPSLKKAEERRDPPESNYIW
On to B1, for which the binding result is given as “binds”.
